Our source for the cell viability values is the supplement of paper PMC3682954.

Counter-ions that a name gives are not always drawn. ± gives the standard deviation of the averaged measurements. This is one part of the list. Single values are uncertain, as repeats are few or missing.

The test deals with RAW 264.7. Put plainly: cell viability (MTT) relative to vehicle control; higher = more viable cells. The settings on record: stimulus: HMGB1 5 ug/ml, 18 h.
Setting [1] is: compound concentration: 1 ug/ml.

As for `CC#CCC(C)[C@H](O)/C=C/[C@@H]1[C@H]2C/C(=C/CCCC(=O)O)C[C@H]2C[C@H]1O` (stereo not given in full) [Iloprost], the cell viability – broadly, a read-out of living cells in per cent, often relative to untreated cells – (compound concentration: 3 uM) is 112%.
As for `CCN(CC)CC1CCCCN1CC(=O)N1c2ccccc2C(=O)Nc2cccnc21` (stereo not given), for the setting “compound concentration: 3 uM”, the cell viability turned out to be 97.6%.
On to `CC1(C)C(=O)N(CCN2CCC(C(=O)c3ccc(F)cc3)CC2)c2ccccc21` [LY-310,762 hydrochloride], for which the cell viability (compound concentration: 3 uM) amounted to 99.7%.
With `O=C(Nc1ccccc1)OCC(CN1CCCCC1)OC(=O)Nc1ccccc1` (stereo not given), the cell viability (compound concentration: 3 uM) came out at 95.7%.
For `O=C(Nc1ccccc1)OCC(CN1CCCCC1)OC(=O)Nc1ccccc1` (stereo not given) [Diperodon hydrochloride], under “compound concentration: 3 uM”, the cell viability came to 103%.
On the same count and under the same terms, then `Oc1cc(O)cc(/C=C/c2ccc(O)c(O)c2)c1` [Piceatannol], with 101%; and `Nc1nc(=O)[nH]cc1F` [Flucytosine], with 88.7%.
For the compound `Nc1nc(=O)[nH]cc1F`, under “compound concentration: 3 uM”, the cell viability was 112%.
Still for that read-out and setting: in the case of `Nc1nnc(-c2cccc(Cl)c2Cl)c(N)n1` it was 101 ± 5.3%; in that of `Nc1nnc(-c2cccc(Cl)c2Cl)c(N)n1` [Lamotrigine], 96.4 ± 2.8%; in that of `CC[C@@]1(O)C(=O)OCc2c1cc1n(c2=O)Cc2cc3c(CN(C)C)c(O)ccc3nc2-1` [Topotecan], 64.3 ± 42%.
Consider `NC[C@H]1O[C@H](O[C@H]2[C@H](O)[C@@H](O[C@H]3O[C@H](CO)[C@@H](O)[C@H](N)[C@H]3O)[C@H](N)C[C@@H]2N)[C@H](N)[C@@H](O)[C@@H]1O`, for which the cell viability (compound concentration: 3 uM) is 92.8%.
Still for that read-out and setting: then `CC(=O)O[C@]1(C(C)=O)CC[C@H]2[C@@H]3C=C(C)C4=CC(=O)CC[C@]4(C)[C@H]3CC[C@@]21C`, with 110 ± 12%; and `CC(=O)O[C@]1(C(C)=O)CC[C@H]2[C@@H]3C=C(C)C4=CC(=O)CC[C@]4(C)[C@H]3CC[C@@]21C` [Megestrol acetate], with 108%.
Turning to `CC(=O)O[C@]1(C(C)=O)CC[C@H]2[C@@H]3C=C(C)C4=CC(=O)CC[C@]4(C)[C@H]3CC[C@@]21C` [Megestrol Acetate], the cell viability (compound concentration: 3 uM) is 106%.
As for `COc1cc(C)c(Cc2cnc(N)nc2N)cc1OC`, for the setting “compound concentration: 3 uM”, the cell viability stood at 95.4%.
For `Cc1c(C)c2c(c(C)c1O)CCC(C)(CCCC(C)CCCC(C)CCCC(C)C)O2` (stereo not drawn) [alpha-TOCHOPHEROL], the cell viability (compound concentration: 3 uM) was found to be 109%.
Take `Cc1cccc(C2CN(C)CCc3c2cc(O)c(O)c3Cl)c1` (stereo not given): under “compound concentration: 3 uM”, the cell viability came to 122%.
In the case of `Cc1nc(N=Nc2cc(S(=O)(=O)O)c3cc([N+](=O)[O-])cc(S(=O)(=O)O)c3c2)c(COP(=O)(O)O)c(C=O)c1O` [PPNDS tetrasodium], the cell viability (compound concentration: 3 uM) was 103%.
The same measure, in the same setting: then `Cc1cccc(C)c1NC(=O)CN1CCN(CCCC(c2ccc(F)cc2)c2ccc(F)cc2)CC1` [Lidoflazine], with 95.2%; and `C#CC1(O)CC[C@H]2[C@@H]3CCC4=CC(=O)CC[C@@H]4[C@H]3CC[C@@]21CC` (stereo not given in full), with 103%.
Turning to `CC/C=C\C/C=C\C/C=C\CCCCCCCC(=O)O` [Linolenic acid], under setting [1], the cell viability came out at 123%.
As to `O=c1c(-c2ccccc2)c1-c1ccccc1` [diphenylcyclopropenone], the cell viability (compound concentration: 3 uM) is 70.8%.
Consider `CC(=O)OC[C@H]1OC=C[C@@H](OC(C)=O)[C@H]1OC(C)=O` [3,4,6-Tri-O-acetyl-D-galactal], for which the cell viability under setting [1] is 99.6%.
For `CCCn1c(=O)c2[nH]c(-c3ccc(OCC(=O)NCCN)cc3)nc2n(CCC)c1=O` [Xanthine amine congener], the cell viability (compound concentration: 3 uM) was found to be 110%.
On to `Cc1ccc(S(=O)(=O)/C=C/C#N)cc1`, for which, for the setting “compound concentration: 3 uM”, the cell viability came out at 95.1%.
For the compound `C[C@H](CCC(=O)NCCS(=O)(=O)O)[C@H]1CC[C@H]2[C@@H]3[C@H](O)C[C@@H]4C[C@H](O)CC[C@]4(C)[C@H]3C[C@H](O)[C@]12C` [Sodium Taurocholate hydrate], where the note is “compound concentration: 3 uM”, the cell viability came out at 107%.
Same read-out and setting: in the case of `C[C@H](CCC(=O)NCCS(=O)(=O)O)[C@H]1CC[C@H]2[C@@H]3[C@H](O)C[C@@H]4C[C@H](O)CC[C@]4(C)[C@H]3C[C@H](O)[C@]12C` [Taurocholic acid] it was 102%; in that of `CC(C)(C)NCC(O)COc1cccc2c1CC(O)C(O)C2` (stereo not given), 99.4%; in that of `CC(C)(C)NCC(O)COc1cccc2c1CC(O)C(O)C2` (stereo not given) [Nadolol], 91.9%.
Still for that read-out and setting: in the case of `CC1=C(C(=O)O)N2C(=O)[C@@H](NC(=O)[C@H](N)c3ccccc3)[C@H]2SC1` it was 103%; in that of `CC1=C(C(=O)O)N2C(=O)[C@@H](NC(=O)[C@H](N)c3ccccc3)[C@H]2SC1` [Cephalexin hydrate], 106%.
As to `CC1=C(C(=O)O)N2C(=O)[C@@H](NC(=O)[C@H](N)c3ccccc3)[C@H]2SC1` [Cephalexin monohydrate], the cell viability (compound concentration: 3 uM) stood at 94.9 ± 1.4%.
Same read-out and setting: then `CCCc1c(OCCCOc2ccc(OCC(=O)O)cc2)ccc(C(C)=O)c1O`, with 111%; and `CC[C@H](C)C(=O)O[C@H]1C[C@H](O)C=C2C=C[C@H](C)[C@H](CC[C@@H](O)C[C@@H](O)CC(=O)O)[C@H]21` [PRAVASTATIN Sodium], with 93.6%.
On the same count and under the same terms, in the case of `CC[C@H](C)C(=O)O[C@H]1C[C@H](O)C=C2C=C[C@H](C)[C@H](CC[C@@H](O)C[C@@H](O)CC(=O)O)[C@H]21` [Pravastatin] it was 129%; in that of `CC[C@H](C)C(=O)O[C@H]1C[C@H](O)C=C2C=C[C@H](C)[C@H](CC[C@@H](O)C[C@@H](O)CC(=O)O)[C@H]21`, 110%; in that of `CCOCCn1c(N2CCCN(C)CC2)nc2ccccc21` [Emedastine], 113%.
Same read-out and setting: then `CN1CC(=O)N=C1NC(=O)Nc1cccc(Cl)c1` [Fenobam], with 114%.
Consider `COc1ccc2c(c1)c(CC(=O)OCC(=O)O)c(C)n2C(=O)c1ccc(Cl)cc1` [Acemetacin], for which the cell viability (compound concentration: 3 uM) was 97.5 ± 6.9%.
Same read-out and setting: in the case of `COc1ccc2c(c1)c(CC(=O)OCC(=O)O)c(C)n2C(=O)c1ccc(Cl)cc1` it was 109%; in that of `Cc1c2oc3c(C)ccc(C(=O)N[C@@H]4C(=O)N[C@H](C(C)C)C(=O)N5CCC[C@H]5C(=O)N(C)CC(=O)N(C)[C@@H](C(C)C)C(=O)O[C@@H]4C)c3nc-2c(C(=O)N[C@@H]2C(=O)N[C@H](C(C)C)C(=O)N3CCC[C@H]3C(=O)N(C)CC(=O)N(C)[C@@H](C(C)C)C(=O)O[C@@H]2C)c(N)c1=O`, 1.56 ± 0.52%.
`CC(C)CCCC(C)C1CCC2C3CC=C4CC(O)CCC4(C)C3CCC12C` (stereo not given): the cell viability under setting [1] amounted to 95.8%.
On the same count and under the same terms, in the case of `Cc1cc(O)cc2oc(-c3ccccc3)cc(=O)c12` [7-Hydroxy-5-methylflavone] it was 86.1%; in that of `CSc1ccc(OCCN=Cc2c(O)c(O)c(C(C)C)c3cc(C)c(-c4c(C)cc5c(C(C)C)c(O)c(O)c(C=NCCOc6ccc(SC)cc6)c5c4O)c(O)c23)cc1`, 111%.
